Test results from article PMC4673164.
No constants are given. Whether binding was seen depends on the method and setting. In cells and extracts the contact can be indirect. Some entries that bind do so weakly or less than the wild type.

Protein sequences, listed by entry. Tags and fused reporters are not part of them. Lines headed by an entry give the natural chain unless they say otherwise; changes in a name come on top.
UniProt P15056: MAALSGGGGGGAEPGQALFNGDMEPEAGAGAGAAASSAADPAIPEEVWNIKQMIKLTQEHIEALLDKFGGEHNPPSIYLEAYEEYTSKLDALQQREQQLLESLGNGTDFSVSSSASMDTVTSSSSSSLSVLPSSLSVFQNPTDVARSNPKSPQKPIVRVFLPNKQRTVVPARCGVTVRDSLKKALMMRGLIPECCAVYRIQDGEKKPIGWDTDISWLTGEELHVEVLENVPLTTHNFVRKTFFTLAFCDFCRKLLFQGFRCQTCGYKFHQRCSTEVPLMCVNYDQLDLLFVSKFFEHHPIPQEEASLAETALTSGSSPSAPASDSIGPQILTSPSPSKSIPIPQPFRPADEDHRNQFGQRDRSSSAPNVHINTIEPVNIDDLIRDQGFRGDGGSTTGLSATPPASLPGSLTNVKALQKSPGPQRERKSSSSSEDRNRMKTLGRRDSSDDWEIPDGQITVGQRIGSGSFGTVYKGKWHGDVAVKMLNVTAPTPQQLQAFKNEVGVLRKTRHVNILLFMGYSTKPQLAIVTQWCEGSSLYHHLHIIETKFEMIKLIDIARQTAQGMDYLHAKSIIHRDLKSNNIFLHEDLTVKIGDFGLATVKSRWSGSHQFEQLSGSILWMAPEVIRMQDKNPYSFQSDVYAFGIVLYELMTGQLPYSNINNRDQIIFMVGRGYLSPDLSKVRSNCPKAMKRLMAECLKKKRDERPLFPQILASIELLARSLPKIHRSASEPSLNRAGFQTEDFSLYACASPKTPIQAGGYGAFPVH

Key:
[1] = target: BRAF-V600E (BRAF-V600E-myc) (human) (UniProt P15056); experiment: co-IP; mitochondrial fractions of HCT116 cells co-transfected with TRAP1 and BRAF-myc or BRAF-V600E-myc; immunoprecipitated with anti-myc, immunoblotted for TRAP1; 18 h at 4°C, protein A/G-agarose, washed twice in lysis buffer
[2] = target: BRAF wild type (BRAF-myc) (human) (UniProt P15056); experiment: as above

binding [1]: binds
binding [2]: binds
B1: TRAP1 (protein, UniProt Q12931 60-704)
chain: STQTAEDKEEPLHSIISSTESVQGSTSKHEFQAETKKLLDIVARSLYSEKEVFIRELISNASDALEKLRHKLVSDGQALPEMEIHLQTNAEKGTITIQDTGIGMTQEELVSNLGTIARSGSKAFLDALQNQAEASSKIIGQFGVGFYSAFMVADRVEVYSRSAAPGSLGYQWLSDGSGVFEIAEASGVRTGTKIIIHLKSDCKEFSSEARVRDVVTKYSNFVSFPLYLNGRRMNTLQAIWMMDPKDVREWQHEEFYRYVAQAHDKPRYTLHYKTDAPLNIRSIFYVPDMKPSMFDVSRELGSSVALYSRKVLIQTKATDILPKWLRFIRGVVDSEDIPLNLSRELLQESALIRKLRDVLQQRLIKFFIDQSKKDAEKYAKFFEDYGLFMREGIVTATEQEVKEDIAKLLRYESSALPSGQLTSLSEYASRMRAGTRNIYYLCAPNRHLAEHSPYYEAMKKKDTEVLFCFEQFDELTLLHLREFDKKKLISVETDIVVDHYKEEKFEDRSPAAECLSEKETEELMAWMRNVLGSRVTNVKVTLRLDTHPAMVTVLEMGAARHFLRMQQLAKTQEERAQLLQPTLEINPRHALIKKLNQLRASEPGLAQLLVDQIYENAMIAAGLVDDPRAMVGRLNELLVKALERH
